# Screen size: about 320,000 compounds; about 22,000 (6.9%) were called active. Inconclusive results, whose numbers are uncertain, are shown with a selection of clear calls. The call rests on the fitted dose curve; in most records, active means well fitted inhibition curve with a large enough effect; inconclusive means small, poorly fitted or top-dose-only effect, or another doubt; inactive means no such curve, though single readings can be large or run the other way. Where the call is inconclusive, the potency comes from a doubtful curve fit.
# Experiment: Primary qHTS for delayed death inhibitors of the malarial parasite plastid, 96 hour incubation
# Conditions: P. falciparum luciferase reporter growth; series mostly up to 28.7 µM
# How it was run: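 Readout is luminescence from an integrated firefly luciferase in P. falciparum. Red cells, 2% hematocrit and 0.05% parasitemia final, were cultured with compound through two parasite generations (96 hours) at 37 C, 5% CO2.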
# Potency means the concentration at half of the fitted maximal effect.
row,SMILES,Potency
1,CCOC1OC2C(CO)OC(n3cnc4c(N)ncnc43)C2O1 (stereo not drawn),active: 4.65 µM
2,NC(=O)C1CCCN(C(=O)c2cccc(S(=O)(=O)N(Cc3ccccc3)c3ccccc3)c2)C1 (stereo not drawn),"inconclusive: 18.5 µM [inhibitor, single point]"
3,COc1ccc(CNC(=O)C2CCCN(S(=O)(=O)c3ccc4c(c3)CCCN4C(C)=O)C2)cc1 (stereo not drawn),"inconclusive: 10.4 µM [inhibitor, single point]"
4,Cc1ccc(S(=O)(=O)N(C)c2ccc(OCC(=O)N3CCCCC3)cc2)cc1,"inconclusive: 10.4 µM [inhibitor, single point]"
5,O=C(CCCOc1ccc(Cl)cc1Cl)N/N=C/c1ccc(Cl)cc1,"inconclusive: 11.7 µM [inhibitor, single point]"
6,CO[C@@H]1C[C@H](O[C@H]2[C@@H](C)[C@H](O[C@@H]3O[C@@H](C)C[C@@H](N(C)C)[C@@H]3OC(C)=O)[C@H](C)C[C@]3(CO3)C(=O)[C@H](C)[C@H](OC(C)=O)[C@H](C)[C@H](C)OC(=O)[C@@H]2C)O[C@H](C)[C@@H]1OC(C)=O,"inconclusive: 6.42 µM [inhibitor, single point]"
7,O=C(CCc1ccncc1)NC1CCCc2c1cnn2-c1cc(F)cc(F)c1 (stereo not drawn),"inconclusive: 14.7 µM [inhibitor, single point]"
8,CC(C)C(=O)Nc1ccc(Cl)cc1-c1nc2ccccc2[nH]c1=O,"inconclusive: 18.5 µM [inhibitor, single point]"
9,CN(C)CCCn1c(NCc2ccc3c(c2)OCO3)nc2ccccc21,inactive
10,CN(CCC1CCCCO1)C(=O)CCc1nnc(CCCCc2ccccc2)o1 (stereo not drawn),inactive
11,Cc1ccc(-c2nc(-c3ccncc3)no2)cc1C,inactive
12,Cc1ccc(-c2cc(C(=O)NCCc3ccccn3)c3ccccc3n2)c(C)c1,"inconclusive: 13.1 µM [inhibitor, partial curve, poor fit]"
13,Cc1cccn2c(=O)c(C(=O)NC3CCCCC3C)c(O)nc12 (stereo not drawn),"inconclusive: 11.7 µM [inhibitor, partial curve, poor fit]"
14,O=C(NCc1nnc2c(C(F)(F)F)cc(Cl)cn12)c1cccs1,inactive
15,COc1ccccc1C(C)NC(=O)c1cc(S(=O)(=O)N2CCCCC2)ccc1C (stereo not drawn),"inconclusive: 18.5 µM [inhibitor, single point]"
16,CCc1ccc(NS(=O)(=O)c2c(C(=O)N3CCOCC3)c(C)n(C)c2C)cc1,inactive
17,C=C(C)c1cccc(C(C)(C)NC(=O)Nc2ccc(C(N)=O)cc2)c1,inactive
18,COc1cccc(C(=O)N2c3ccccc3Sc3ccccc32)c1,inactive
19,Cc1nn(C)c(C(=O)N/N=C/c2ccncc2)c1Cl,inactive
20,S=C(NCCc1ccccc1)NCCc1cnc[nH]1,"inconclusive: 16.5 µM [inhibitor, single point]"
21,COc1ccc(NC(=O)CSc2ccc3nnc(CCNC(=O)c4ccccc4)n3n2)cc1,"inconclusive: 10.4 µM [inhibitor, single point]"
22,CCCCN(C)C(=S)Nc1ccsc1C(=O)OC,"inconclusive: 9.28 µM [inhibitor, partial curve, poor fit]"

row,SMILES,Potency
1,C=CCn1c(SCC(=O)NCCCO)nc2sc3c(c2c1=O)CCC3,inactive
2,COc1cc2ccccc2cc1C(=O)N(CCN(C)C)c1nc2ccc(Br)cc2s1,"inconclusive: 18.5 µM [inhibitor, single point]"
3,O=C(NCCCN1CCN(c2ccc(F)cc2)CC1)C1CCCN(c2ncnc3c2nc2n3CCCCC2)C1 (stereo not drawn),"inconclusive: 1.65 µM [inhibitor, partial curve, poor fit]"
4,COCCNC(=O)CSc1nnc(-c2ccccc2F)n1Cc1ccccc1,inactive
5,O=C(O)C/C(=C\c1ccc(Cl)cc1)c1nc2ccccc2o1,inactive
6,C/C(=N\NS(=O)(=O)c1ccc(C)c([N+](=O)[O-])c1)c1cccs1,inactive
7,CC(C)(C)NS(=O)(=O)c1ccc2[nH]c3c(c2c1)CCCCC3,"inconclusive: 0.0233 µM [inhibitor, full curve, poor fit]"
8,CCOC(=O)c1cnc2ccc(C(=O)OC)cc2c1Nc1ccc2c(c1)OCCO2,active: 10.4 µM
9,COc1cc(-c2nnc(CSc3nnc(Nc4ccc(C(C)C)cc4)s3)o2)cc(OC)c1OC,"inconclusive: 20.8 µM [inhibitor, single point]"
10,Cc1c(C)c2cc(Cl)c(OCC(=O)NC3CC(C)(C)NC(C)(C)C3)cc2oc1=O,"inconclusive: 20.8 µM [inhibitor, partial curve, poor fit]"
11,CC(=O)Nc1ccc2c(c1)CCC2=O,"inconclusive: 14.7 µM [inhibitor, partial curve, poor fit]"
12,CCOC(=O)CCc1c(C)nc2c(c(C)nn2C(C)(C)C)c1C,"inconclusive: 8.28 µM [inhibitor, single point]"
13,Cc1cccn2cc(-c3ccc(S(=O)(=O)N4CCCCC4)cc3)nc12,active: 10.4 µM
14,COc1ccccc1/C=C/C=N/NC(=O)c1cnccn1,"inconclusive: 18.5 µM [inhibitor, single point]"
15,Cc1cc(C(=O)N/N=C/c2cc(N=Nc3ccccc3)ccc2O)n[nH]1,"inconclusive: 16.5 µM [inhibitor, single point]"
16,COc1ccc(CCNc2oc(-c3ccc(OC)c(OC)c3)nc2C#N)cc1,"inconclusive: 18.5 µM [inhibitor, single point]"
17,Cc1ccc2nc(NC(=O)c3ccccn3)sc2c1,"inconclusive: 9.28 µM [inhibitor, single point]"
18,O=C(Nc1c(Cl)cc(Cl)cc1C(=O)NCCN1CCOCC1)c1cccc([N+](=O)[O-])c1,"inconclusive: 0.0037 µM [inhibitor, full curve, poor fit]"
19,Cc1ccc2ncnc(NCCCN3CCOCC3)c2c1,"inconclusive: 4.65 µM [inhibitor, partial curve, poor fit]"
20,CC(=O)Nc1ccc(NC(=O)Nc2cccc3ccccc23)cc1,inactive
21,O=[N+]([O-])c1ccc(NCCNS(=O)(=O)c2ccccc2)c(C(F)(F)F)c1,"inconclusive: 18.5 µM [inhibitor, single point]"

# 12 entries from above, tab-delimited.
row	SMILES	Potency
1	C=CCn1c(SCC(=O)NCCCO)nc2sc3c(c2c1=O)CCC3	inactive
3	O=C(NCCCN1CCN(c2ccc(F)cc2)CC1)C1CCCN(c2ncnc3c2nc2n3CCCCC2)C1 (stereo not drawn)	inconclusive: 1.65 µM [inhibitor, partial curve, poor fit]
4	COCCNC(=O)CSc1nnc(-c2ccccc2F)n1Cc1ccccc1	inactive
6	C/C(=N\NS(=O)(=O)c1ccc(C)c([N+](=O)[O-])c1)c1cccs1	inactive
8	CCOC(=O)c1cnc2ccc(C(=O)OC)cc2c1Nc1ccc2c(c1)OCCO2	active: 10.4 µM
11	CC(=O)Nc1ccc2c(c1)CCC2=O	inconclusive: 14.7 µM [inhibitor, partial curve, poor fit]
12	CCOC(=O)CCc1c(C)nc2c(c(C)nn2C(C)(C)C)c1C	inconclusive: 8.28 µM [inhibitor, single point]
14	COc1ccccc1/C=C/C=N/NC(=O)c1cnccn1	inconclusive: 18.5 µM [inhibitor, single point]
15	Cc1cc(C(=O)N/N=C/c2cc(N=Nc3ccccc3)ccc2O)n[nH]1	inconclusive: 16.5 µM [inhibitor, single point]
16	COc1ccc(CCNc2oc(-c3ccc(OC)c(OC)c3)nc2C#N)cc1	inconclusive: 18.5 µM [inhibitor, single point]
17	Cc1ccc2nc(NC(=O)c3ccccn3)sc2c1	inconclusive: 9.28 µM [inhibitor, single point]
18	O=C(Nc1c(Cl)cc(Cl)cc1C(=O)NCCN1CCOCC1)c1cccc([N+](=O)[O-])c1	inconclusive: 0.0037 µM [inhibitor, full curve, poor fit]
